Drawing on PubChem BioAssay AID2685 (National Center for Advancing Translational Sciences (NCATS), 2010), this text covers cell number change and AC50 for 57 molecules.

A word on the AC50: it is the concentration giving half of the maximal activity seen. Low values mean activity at low concentration, high ones activity only at high concentration.

The assay in a line: qHTS Assay for Lipid Storage Modulators in Drosophila S3 Cells.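 On cell number change: cells counted by Cell Tracker Red CMTPX staining in the red channel.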 Conditions: BODIPY lipid droplet fluorescence, 18-24 h; for cell number change: measured here: cell count max response, cells fed with added oleic acid. The gist of the method: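 Laser-scanning cytometry quantifies lipid droplet accumulation (500–530 nm total intensity; droplet/cell object ratio) in oleic acid-fed (400 uM added) Drosophila S3 cells treated with a concentration series. 20 uM Triacsin C defined 100% inhibition.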

Where [1] appears, read: measured here: lipid fluorescence (Fed channel) AC50, cells fed with added oleic acid.
Setting [2] is: measured here: cell number channel AC50, cells fed with added oleic acid.

Each structure is given as a SMILES string. Some of the results follow. Shown are side measurements of this screen, not its main read-out; they come without a call. The list favours compounds with an active or inconclusive main result. The note in brackets gives the kind of curve behind each potency; many fits are weak.

For `COc1ccc(CCN2C(=O)C3C4C=CC(C4)C3C2=O)cc1OC` (stereo unspecified), the cell number change is 7.71%. Further, under setting [1], the AC50 is 16.4 µM [falling, partial curve]. `O=C1CSC(c2cccc([N+](=O)[O-])c2)N1c1ccccc1` (stereo unspecified): the cell number change is -63.9%. Besides, the half-maximal activity concentration (AC50) under setting [2] is 2.06 µM [falling, partial curve]. The AC50 under setting [1] was 29.1 µM [falling, single point]. Regarding `C=CCn1c(SCc2ccc(C#N)cc2)nnc1-c1cccc(Cl)c1`, the AC50 by setting is: under setting [2], 4.11 µM [rising, single point]; under setting [1], 0.58 µM [rising, single point].

Turning to `O=C(NNS(=O)(=O)c1ccccc1[N+](=O)[O-])c1cccc(Br)c1`, the cell number change was -23.6%. Also, under setting [1], the concentration at half-maximal activity (AC50) was 29.1 µM [rising, single point]. As for `CCOC(=O)N1CCN(C(=O)/C(=C\c2cccs2)NC(=O)c2cccs2)CC1`, the cell number change is -1.59%. For the molecule `CCCCn1c(N)c(N(CC(C)C)C(=O)c2cc3c(s2)CCCCC3)c(=O)[nH]c1=O`, the cell number change worked out at 34.4%. Under setting [2], the AC50 is 29.1 µM [rising, single point].

On to `Cc1nn(Cc2ccc(Cl)cc2)c(C)c1NC(=O)c1cc(-c2ccc3c(c2)OCO3)on1`, for which the cell number change was -30.1%. Moreover, under setting [2], the half-maximal activity concentration (AC50) is 29.1 µM [falling, single point]. The concentration at half-maximal activity (AC50) under setting [1] was 0.0651 µM [rising, full curve, poor fit]. In the case of `O=C(Nc1ccccc1)c1cccnc1N1CCOCC1`, under setting [1], the AC50 is 0.366 µM [falling, full curve, poor fit]. For `Cc1ccc(S(=O)(=O)Nc2cccc(C(=O)NCC3CCCO3)c2)cc1F` (stereo unspecified), the cell number change was -62.5%. Moreover, the AC50 under setting [2] was 32.6 µM [falling, single point]. As to `COCCCn1c(=S)[nH]c2ccc(N3CCOCC3)cc2c1=O`, the cell number change worked out at 93.5%. Further, the AC50 under setting [2] is 23.1 µM [rising, partial curve]. Also, the AC50 under setting [1] is 23.1 µM [rising, partial curve]. Turning to `COc1ccc(C(=O)Nc2ccc(S(=O)(=O)Nc3nccnc3OC)cc2)cc1`, under setting [1], the AC50 is 0.651 µM [falling, single point]. As for `Fc1ccccc1Nc1nc(N2CCOCC2)nc(N2CCOCC2)n1`, the cell number change came to 23.3%. Further, under setting [1], the AC50 is 0.651 µM [rising, single point]. Consider `Cc1oc(-c2cccc(Cl)c2)nc1CS(=O)(=O)CC(=O)NCCN1CCOCC1`, for which the cell number change is 3.75%. Under setting [1], the half-maximal activity concentration (AC50) is 0.164 µM [rising, full curve, poor fit]. As to `CC1CCN(CCCCOc2ccc(Br)cc2)CC1`, the cell number change is -8.78%. Besides, under setting [2], the half-maximal activity concentration (AC50) was 0.731 µM [rising, single point]. Regarding `COc1ccc2c(c1)c(CC(=O)OCC(=O)O)c(C)n2C(=O)c1ccc(Cl)cc1`, the half-maximal activity concentration (AC50) under setting [2] is 6.51 µM [falling, single point]. With `CCCSc1nc(=O)n2cc(C)ccc2n1`, the cell number change was 9.97%. Besides, the concentration at half-maximal activity (AC50) under setting [1] was 5.8 µM [rising, full curve, poor fit]. Take `CCN(CC)S(=O)(=O)c1cccc(NC(=O)CN2C(=O)NC3(CCC(C)CC3)C2=O)c1` (stereo unspecified): the cell number change was 42.6%. As for `CC(=O)Nc1ccc(NC(=O)c2nc(S(=O)(=O)Cc3ccccc3)ncc2Cl)cc1`, the cell number change was 8.22%. Moreover, the AC50 under setting [1] is 0.0651 µM [falling, full curve, poor fit]. Consider `Cc1ccc(C(=O)N/C(=C\c2ccc(-c3cccc([N+](=O)[O-])c3)o2)C(=O)NCCCN2CCOCC2)cc1`, for which the cell number change was found to be 16.8%. In addition, under setting [1], the AC50 was 18.4 µM [rising, partial curve]. Consider `Cc1nc2ccccn2c1C(=O)NCCCN1CCOCC1`, for which the cell number change was -20%. For the same molecule, the AC50 under setting [1] is 29.1 µM [falling, single point].

On to `Cc1cc(-c2ccccc2)nc(SCC(=O)N2CCCC2)n1`, for which the cell number change is 43%. Besides, under setting [1], the AC50 is 16.4 µM [rising, partial curve]. For the molecule `C=CCn1c(SCC(=O)Nc2ccc(C(=O)O)cc2)nc2sc(C)c(C)c2c1=O`, the cell number change was -1.13%. In addition, under setting [1], the AC50 is 11.6 µM [rising, partial curve, poor fit]. In the case of `CCN(C(=O)c1nn(-c2ccc(OC)cc2)c(=O)c2c1c1ccccc1n2C)c1ccc(OC)cc1`, the cell number change is -1.68%. Besides, the AC50 under setting [1] was 1.16 µM [falling, full curve, poor fit]. On to `CC(c1ccc2c(c1)OCO2)n1c(=S)[nH]c2ccccc2c1=O` (stereo unspecified), for which the cell number change was 17.5%. For the same molecule, the AC50 under setting [1] is 2.06 µM [falling, single point]. Take `COc1ccc(C(CNC(=O)CNC(=O)c2cccc(Cl)c2)N2CCCC2)cc1` (stereo unspecified): the cell number change was -18.1%. Besides, under setting [1], the AC50 was 4.11 µM [rising, partial curve]. Take `O=P(CCC(F)(F)F)(CCC(F)(F)F)CCC(F)(F)F`: the cell number change was -29.7%. Moreover, the AC50 under setting [2] was 0.092 µM [falling, full curve, poor fit]. In addition, the AC50 under setting [1] was 29.1 µM [falling, partial curve]. Regarding `COc1ccc(Cl)cc1NS(=O)(=O)c1cccc(C(=O)NC2CCC(O)CC2)c1` (stereo unspecified), the cell number change was 26.5%. Still for that read-out and setting: with `O=C(CN(Cc1ccccc1Cl)C(=O)c1csnn1)NCc1ccccc1` the figure was 3.81%.

On to `O=C(NCCc1c[nH]c2ccccc12)C1CCC(Cn2c(=S)[nH]c3ccccc3c2=O)CC1` (stereo unspecified), for which, under setting [2], the AC50 is 2.91 µM [rising, single point]. Regarding `Cc1oc2c(c1C(=O)NCCO)CCCC2`, the cell number change was found to be 6.76%. Moreover, under setting [1], the concentration at half-maximal activity (AC50) was 18.4 µM [falling, partial curve].

Turning to `CC(=O)Nc1ccc(-c2csc(N/N=C(/C)c3ccccc3)n2)cc1`, the cell number change is 0.455%. The AC50 under setting [2] was 0.411 µM [rising, single point]. The AC50 under setting [1] was 0.411 µM [rising, partial curve, poor fit]. Regarding `CC(C)Cc1ccc(C(C)C(=O)Nc2ccc(O)cc2)cc1` (stereo unspecified), the cell number change is -54.4%. Besides, the AC50 under setting [2] was 18.4 µM [falling, single point]. Besides, under setting [1], the AC50 is 0.13 µM [falling, full curve, poor fit]. As for `Cn1c(SCC(=O)N2CCCc3ccccc32)nnc1-c1c[nH]c2ccccc12`, the AC50 is 2.31 µM [rising, partial curve] under setting [2] and 1.46 µM [rising, partial curve] under setting [1]. In the case of `CC1CCN(CCNC(=O)C2CCCN(c3ncnc4c3nc3n4CCCCC3)C2)CC1` (stereo unspecified), the cell number change worked out at 19.8%. For the same molecule, the AC50 under setting [1] was 29.1 µM [rising, single point]. On to `COc1cc(C(=O)NC(=S)Nc2ccc3c(c2)C(=O)N(C)C3=O)cc(OC)c1OC`, for which the cell number change was 4.35%. Besides, the AC50 under setting [1] is 4.61 µM [rising, partial curve]. As for `CC(C)c1cc(=O)n2[nH]c(N)nc2n1`, the cell number change is -4.45%. With `c1ccc2c(Nc3nc(N4CCOCC4)c4ccccc4n3)cccc2c1`, the cell number change is -43%. Also, under setting [2], the AC50 was 29.1 µM [falling, single point]. Under setting [1], the AC50 was 1.46 µM [rising, partial curve]. Consider `O=C(Nc1ccc(S(=O)(=O)Nc2nccs2)cc1)c1cnc(Cl)c(Cl)c1`, for which the cell number change worked out at 14.7%. As to `Cc1cccc(CC(=O)N2CCN=C2SCc2ccc([N+](=O)[O-])cc2)c1`, the cell number change is 14%. The AC50 under setting [1] is 9.2 µM [rising, partial curve]. With `CC(C)C(C)NC(=O)COc1nc2ccccc2nc1N(C)C1CCCCC1` (stereo unspecified), the cell number change is -3.97%. In addition, the AC50 under setting [1] is 29.1 µM [rising, single point]. Consider `CCOc1ccc(N2CC(C(=O)Nc3ccc(S(=O)(=O)NCC4CCCO4)cc3)CC2=O)cc1` (stereo unspecified), for which the cell number change was 16.7%. Also, the AC50 under setting [1] is 0.0651 µM [rising, full curve, poor fit]. Regarding `O=C(COC(=O)c1cc(F)c(F)cc1Cl)NC1CC1`, the cell number change was -12.2%.

For `CC1(C)Oc2ccc(C(=O)NC3CCCC3)cc2N(CC(=O)N2CCOCC2)C1=O`, under setting [1], the AC50 was 23.1 µM [rising, single point]. Turning to `CCOC(=O)c1cc(C(=O)NNC(=O)c2cccc([N+](=O)[O-])c2)c(C)nc1C`, the cell number change stood at 32.9%. Further, the AC50 under setting [2] is 4.61 µM [rising, partial curve]. Regarding `CCOC(=O)n1c(=O)n(Cc2ccc(F)cc2)c2ccccc21`, the cell number change is 39.5%. Besides, the AC50 under setting [1] is 6.51 µM [rising, full curve]. On to `CCOC(=O)c1ccc(NC(=O)COC)cc1`, for which the cell number change was -80.7%. Moreover, under setting [2], the AC50 is 14.6 µM [falling, partial curve]. Consider `CC1CCN(c2c(NCc3ccc(C(=O)NCc4ccccc4)cc3)c(=O)c2=O)CC1`, for which the cell number change was -29%. The AC50 under setting [1] is 23.1 µM [falling, single point].

Regarding `CCC(=O)Nc1ccc(C(=O)Cn2nc(C(=O)O)c3ccccc3c2=O)cc1`, the cell number change is -16.7%. In addition, under setting [1], the AC50 is 8.2 µM [falling, single point].

Consider `Cc1nnc(N/N=C/c2cc(C)n(-c3ccc(F)cc3)c2C)n1N`, for which the cell number change is -53.8%. Also, under setting [2], the half-maximal activity concentration (AC50) is 3.26 µM [falling, partial curve]. For the same molecule, the AC50 under setting [1] was 2.59 µM [falling, full curve].

For `CCn1cc([N+](=O)[O-])c(C(=O)N2N=C(c3ccc4ccccc4c3)CC2c2ccccc2O)n1` (stereo unspecified), the cell number change is -20.3%. As for `COc1cc(/C=C2\SC(=Nc3cccnc3)NC2=O)cc(OC)c1OC`, the cell number change is -19.2%. Further, the AC50 under setting [1] is 18.4 µM [falling, single point].

In the case of `COc1cc(/C=N/NC(=O)c2ccc(-c3ccccc3)cc2)cc(OC)c1OC`, the cell number change is 23.5%. Further, the AC50 under setting [2] is 2.31 µM [rising, full curve, poor fit]. Further, the AC50 under setting [1] was 2.06 µM [rising, partial curve]. For the molecule `COc1ccccc1C1CCN(C(=O)c2cnn(-c3ccccc3)c2C)CC1`, the cell number change came out at 2.74%. Also, under setting [1], the AC50 was 0.461 µM [rising, partial curve, poor fit]. With `C#CCOCCOCCOCCNc1nc(N2CCN(C(=O)CCCCCCCCCCNC(=O)[C@H](CCCCN)n3cc(CCCC(=O)O)nn3)CC2)nc(N2CCN(C(=O)CCCCCCCCCCNC(=O)[C@@H]([C@H](C)O)n3cc(C)nn3)CC2)n1`, the cell number change was -0.984%. Moreover, the AC50 under setting [1] is 29.1 µM [rising, single point]. For `COc1ccccc1CNC(=O)CCNS(=O)(=O)c1ccc2c(c1)oc(=O)n2C`, the cell number change is -23%. Moreover, the AC50 under setting [1] is 29.1 µM [rising, single point]. Regarding `Cc1cnc(NC(=O)Cc2c[nH]c3ccccc23)s1`, the cell number change was -34.1%. Under setting [2], the AC50 is 0.58 µM [falling, full curve, poor fit]. Further, the AC50 under setting [1] is 0.461 µM [falling, full curve]. Turning to `CC1(C)Cc2c(sc(NC(=O)c3ccc(C(=O)c4ccccc4)cc3)c2C#N)C(C)(C)N1`, the cell number change is -20.5%. The AC50 under setting [1] is 29.1 µM [falling, single point].
